Laboratory results published in PMC4482762.

Experiments:
Assay in all cases: co-IP; GFP-Trap: lysates of Hek293 cells transfected with YFP-R6 forms, 2 mg of supernatant with GFP-Trap_A beads 10 min at 4°C (25 mM Tris-HCl pH 7.5, 150 mM NaCl, 0.5% NP-40); endogenous partners found by Western blotting
[1] = target: T1, YFP-R6 RARA (V103A-F105A) (human) (UniProt O95685)
T1 sequence: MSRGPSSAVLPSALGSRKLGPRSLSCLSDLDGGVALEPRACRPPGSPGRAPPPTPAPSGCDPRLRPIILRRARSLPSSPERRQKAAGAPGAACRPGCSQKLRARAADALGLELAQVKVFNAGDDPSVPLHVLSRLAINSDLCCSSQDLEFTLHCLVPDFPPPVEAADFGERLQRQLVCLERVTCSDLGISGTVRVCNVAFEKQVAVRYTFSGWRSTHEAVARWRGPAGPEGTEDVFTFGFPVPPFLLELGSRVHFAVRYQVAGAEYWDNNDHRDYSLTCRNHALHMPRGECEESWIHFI

YFP-R6 S25A (human) = target: T2, YFP-R6 S25A (human) (UniProt O95685)
T2 sequence: T1 sequence with S25A, A103V, A105F

YFP-R6 S74A (human) = target: T3, YFP-R6 S74A (human) (UniProt O95685)
T3 sequence: T1 sequence with S74A, A103V, A105F

[2] = target: T4, YFP-R6 WDNAD (N270A) (human) (UniProt O95685)
T4 sequence: T1 sequence with A103V, A105F, N270A

[3] = target: T5, YFP-R6 wild type (PPP1R3D) (human) (UniProt O95685)
T5 sequence: T1 sequence with A103V, A105F

Measured: binding

endogenous glycogen synthase (GS) (human (endogenous in Hek293)) (enzyme)
binds: all assays above

endogenous glycogen phosphorylase (GP) (human (endogenous in Hek293)) (enzyme)
binds: all assays above

Changes are numbered by the printed parent chain. No constants are given. Whether binding was seen depends on the method and setting. In cells and extracts the contact can be indirect. A result given as binding can be weak or reduced; the word gives no strength. Sequences can lack the tags named with a protein.
